Source: publication PMC5198986
No constants are given. Whether binding was seen depends on the method and setting. Some results given as binding are weak or reduced against the parent protein; the word gives no strength.

Target: Plasmodium falciparum histone H2B (P. falciparum) (UniProt Q8IIV1)
Experiment: SEC; both purified

- binding: binds
Substance: Plasmodium falciparum histone H2A (from UniProt P40282 1-132)
